What was measured:
[1] = LC-MS/MS (DDA, label-free) analysis of protein corona formed on polystyrene NPs in human plasma spiked with small molecules
[2] = PtdChos concentration series, LC-MS/MS of protein corona (120 minute gradient); set-up: species or system human
[3] = LC-MS analysis of protein corona by data-independent acquisition (DIA); set-up: species or system human; settings: 1000 μg/ml PtdChos

## phosphatidylcholine [PtdChos]
[1]; 1000 μg/ml small molecule spiked into 55% human plasma, polystyrene NPs 0.2 mg/ml, DDA LC-MS/MS
  number of quantified proteins in protein corona: 897
[1]; 1000 μg/ml small molecule, versus plasma alone (218 proteins)
  fold of quantified proteins in plasma alone: 4.1 fold
[1]; 1000 μg/ml small molecule, versus untreated protein corona (681 proteins)
  fold of quantified proteins in untreated corona: 1.3 fold
[2]; PtdChos 1000 μg/ml, fresh samples, 120 minute gradient
  number of proteins quantified in protein corona, concentration series: 957
[2]; series 100 to 10,000 μg/ml
  effect of other PtdChos concentrations on number of quantified proteins: neither lower concentration nor further addition of PtdChos enhanced the number of quantified proteins
[3]
  fold increase of identified proteins over the untreated corona (DIA): 1.4 fold
[3]; one replicate
  number of proteins identified in protein corona (DIA): 1436

Source: US20260266834A1, “Compositions And Methods For Detecting Proteins In Protein Corona” (Board of Trustees of Michigan State University, priority 2023, published 2026)
